# Source: PubChem BioAssay AID1347423 (Functional Genomics Laboratory (NCATS/FGL), 2020)
# The whole screen tested about 52,000 sequences, of which about 210 (0.4%) were called active.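 Rule for the calls: active = gene whose silencing raises cell survival under the drug, median off-target-corrected z-score across its silencing RNAs 2 or more; inactive = the rest.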 The list shows a part of the results.
# Experiment: Resistance to Poly (ADP-Ribose) Polymerase inhibitor: Gene Identification via Genome-wide siRNA Screen
# Conditions: mouse BRCA2 R2336H ES cells, olaparib, CellTiter-Glo viability; active compounds read high
# In short: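 Genome-wide siRNA screen (3 siRNAs/gene, 20 nM) in mouse ES cells carrying hypomorphic BRCA2 R2336H; olaparib 500 nM added 48 h post-transfection, CellTiter-Glo viability 72 h later. Normalized to plate-median negative control; MAD z-scores, gene median, seed-adjusted.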
row,Sequence,z-score
1,CCUGCAUAUUGGAUUAAUATT against AW050020,inactive: 0.835
2,GCCGCUAUCGUCUUUAUCATT against Ptk7,inactive: 0.37
3,GCUCCAAUGUGGUUGAGCATT against Olfr531,inactive: -0.936
4,GGAAUAUUGCUAAACACAATT against 1700025G04Rik,inactive: 0.326
5,GGAACUUAUCCGGUUUGAUTT against Limk1,inactive: 0.583
6,CCUACGAGUUGUUAAGGACTT against 9130207N01,inactive: -0.334
7,GGUAUUGAAAAAGCUUUUCTT against Rragc,inactive: -0.14
8,UUCUGUGCAUCCUGUCCUATT against Kcnk15,active: -0.484
9,GGCUCCUGGGCAAUAUGAUTT against Hbb-b1,inactive: -0.114
10,GGUGGUCAUCAACACACAGTT against Drd1ip,inactive: 0.467
11,GCAGUAGGUUGCACACAUATT against Art1,inactive: -0.715
12,GGACUAGUUGUGACUUAAGTT against Aldh1a1,inactive: 0.188
13,GCAUUCUCAAGAGAUGCCCTT against Alk,inactive: -0.552
14,GGCAAUCAUUGGACUAUACTT against Nckap1,inactive: -0.467
15,GGAGGCUAUCAGAAGCAUCTT against C130021I20,inactive: -0.324
16,GCCUGAUACGUUUUUUAAGTT against Ccr1l1,inactive: 0.331
17,GCUAUGAUGUAGCCAGGACTT against 1110007F05Rik,inactive: -2.43
18,GGAUGUCUACUUUGUAUCUTT against Tph1,inactive: -1.19
19,GGAUUCAUUUCAUACCUUGTT against 1700093E07Rik,inactive: -0.368
20,GGACCUUUUGUGAACUUACTT against E2f3,inactive: 2.23
21,CCGUUCUCCAGGACUCUUUTT against 2310036O22Rik,inactive: 0.246
22,CCACUUGAGAGGUGUUUUUTT against 1110055N21Rik,inactive: 1.28
23,GGACAAUCACUCCAGGAGUTT against Gzmg,inactive: -0.123
24,GAUGUCUUCUAUGGAGGCATT against Olfr60,inactive: -1.31
25,GGGUAAAGACCUCAAUGAATT against 3200001I04Rik,inactive: 0.278
26,GCACUUUGACCUGAAUCUATT against Bing4,inactive: -1.41
27,GGUUACCUAUACAUUUCAGTT against Erbb2,inactive: -0.108
28,GGGAGGUAGUCGUAGAAAUTT against Trp53i11,inactive: 0.685

# Pulled one by one from above, 2 records:
row,Sequence,z-score
20,GGACCUUUUGUGAACUUACTT against E2f3,inactive: 2.23
10,GGUGGUCAUCAACACACAGTT against Drd1ip,inactive: 0.467
